Experimental data published in patent US20250326816A1 (KOREA UNIVERSITY RESEARCH AND BUSINESS FOUNDATION, published 2025).
These are yes or no findings as the source states them, for the method shown. Some results given as binding are weak or reduced against the parent protein; the word gives no strength. Sequences can lack the tags named with a protein.

Assays:
[1] = target: T1, Dimeric human ICOS (ICOS-Fc) (human, UniProt Q9Y6W8 21-140); experiment: ELISA, ICOS-Fc coated at 4 ug/ml, ICOS-L variant titrated, anti-His-HRP
T1 construct: range 21-140; Fc at the C-terminus of ICOS to induce dimerization; Labeled with Alexa488 when used as probe in the flow cytometry on yeast; also called ICOS-Fc dimer protein; ICOS dimer protein; not shown: GS linker of glycine and serine; Fc region (domain) of human IgG antibody
T1 sequence (looked up): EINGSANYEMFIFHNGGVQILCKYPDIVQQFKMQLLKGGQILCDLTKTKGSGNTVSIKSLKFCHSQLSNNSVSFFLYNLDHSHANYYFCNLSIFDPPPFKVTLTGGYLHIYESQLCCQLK
Description: (§1) After washing four times, 50 μl of an anti-His-HRP conjugate was added and reacted at room temperature for 1 hour, and then washed four times. Thereafter, 50 μl of a 1-Step Ultra TMB-ELISA substrate solution (Thermo Fisher Scientific, 34028) was added to develop color, and then added with 50 μl each of 2 M H₂SO₄ to terminate the reaction, and then analyzed using an Epoch microplate spectrophotometer (BioTek).

[2] = target: T1, Dimeric human ICOS (ICOS-Fc); experiment: bio-layer interferometry (Octet R8), ICOS-Fc captured on Protein A biosensor, 600 s association and 600 s dissociation
[3] = target: T1, Dimeric human ICOS (ICOS-Fc); experiment: ELISA, ICOS-Fc coated at 4 ug/ml, ICOS-L variant titrated, anti-His-HRP (x axis printed as PD-L1 CO…ON (nM))
Description: as §1

Measured: binding

B1: A184 (ligand)
single chain: DTQEKEVRAMVGSDVELSCACPEGSRFDLNDVYVYWQTSESKTVVTYHIPQHSSLEYVDSRYRNRALMSPAGMLRGDFSLRLFNVTPQDEQKFHCLVLSPSLGFQEVLSVEVTLHVAANFSVPVVSAPHSPSQDELTFTCTSINGYPRPNVYWINKTDNSLLDQALQNDTVFLNMRGLYDVVSVLRIARTPSVNIGCCIENVLLQQNLTVGSQTGNDIGERDKITENPVSTGEKNAAT
notes: Soluble form without Fc; the Fc and atezolizumab fusions are m12, m15 and m18; also called control A184
binds: all assays above
